The whole screen tested about 220,000 compounds, of which about 2,400 (1.1%) were called active. Inconclusive results, whose numbers are uncertain, are shown with a selection of clear calls. The call rests on the fitted dose curve; in most records, active means well fitted inhibition curve with a large enough effect; inconclusive means small, poorly fitted or top-dose-only effect, or effect the other way; inactive means no such curve, though single readings can be large or run the other way. A potency beside an inconclusive call is a rough fit, not a confirmed value.
Assay: qHTS Multiplex Assay to Identify Dual Action Probes in a Cell Model of Huntington: Aggregate Formation (GFP); further: nearly all actives have a fitted effect of over 60% in size
Details: PC12 HttQ103-GFP aggregates, Acumen cytometry, 40 h; activity change, negative = inhibition: at 46.1 µM (top of the series) unless noted
Summary of the method: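 Inducible Q103 Huntingtin exon 1–GFP PC12 line, 1500 cells/well in phenol red free DMEM with 5% equine and 5% calf serum. Tebufenozide 100 nM induced expression; compounds titrated; aggregates quantified by cytometry.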
For Cn1cc(SCC(=O)N2CCCc3ccccc32)c2ccccc21, the “activity change, negative = inhibition” value was inactive: -10.4%.
In the case of Cc1ccc(-c2c(C#N)c(N)n3c(nc4ccccc43)c2C#N)cc1, the Potency is reported as active: 10 µM.
For O=C(NCCC1=CCCCC1)C1CCN(C(=O)Cc2ccccc2)CC1, the activity change, negative = inhibition was inactive: -11.3% [at 9.22 µM].
In the case of COc1ccc2ncn(-c3ccccc3)c2c1, the Potency is reported as active: 10 µM.
In the case of FC(F)(F)c1ccc(NC(=S)NC2CCCCC2)cc1, the Potency is reported as inconclusive: 35.5 µM [inhibitor, single point].
In the case of COc1ccc(CN(C)CC(=O)Nc2c(C)cccc2C)c(OC)c1, the Potency is reported as inconclusive: 0.891 µM [activator, full curve, poor fit].
With COc1cc(NS(=O)(=O)c2ccc(NC(=S)NC(=O)/C=C/c3ccco3)cc2)ncn1 the Potency was inconclusive: 3.98 µM [activator, full curve, poor fit].
For Cc1nc2cc(-c3ccc(Cl)cc3)nn2c(C)c1CCC(=O)NC(C)c1ccc2c(c1)OCCO2 (stereo not drawn), the Potency was inconclusive: 35.5 µM [inhibitor, single point].
With O=C(Nc1ccc(Cl)cc1)Nc1cc([N+](=O)[O-])ccc1F the Potency was active: 20 µM.
For O=C(Nc1ccc(-c2noc(COc3ccccc3Cl)n2)cc1)c1ccco1, the Potency was inconclusive: 5.62 µM [activator, single point].
In the case of COc1ccc(-n2cnnc2SCc2ncc(-c3ccccc3)o2)cc1, the Potency is reported as inconclusive: 1.58 µM [inhibitor, partial curve, poor fit].
For CC(C)CNS(=O)(=O)c1ccc(CCC(=O)N2CCN(Cc3ccc4c(c3)OCO4)CC2)cc1, the Potency was active: 11.2 µM.
In the case of COc1cc(C2C(C#N)=C(N)N(Nc3ccccc3)C3=C2C(=O)CC(C)(C)C3)ccc1OCc1ccccc1 (stereo not drawn), the Potency is reported as inconclusive: 35.5 µM [inhibitor, single point].
For O=C(C1CCN(S(=O)(=O)c2cccc3cccnc23)CC1)N1CCN(c2ccccc2)CC1, the “activity change, negative = inhibition” value was inactive: -23.1%.
For O=C(CSc1ccsc1[N+](=O)[O-])N1CCCCCC1, the “activity change, negative = inhibition” value was inactive: 6.07%.
For Cc1nn(-c2ccccc2)c(C)c1/C=N\N1CCN(c2ccc(Cl)cc2)CC1, the Potency was inconclusive: 35.5 µM [inhibitor, single point].
In the case of Cc1cccc(NC(=S)NC(C)(C)CC(C)(C)C)c1, the Potency is reported as inconclusive: 28.2 µM [inhibitor, single point].
In the case of CCOC(=O)c1c(C)[nH]c(C(=O)CN2C(=O)NC(C)(c3ccc(C)cc3)C2=O)c1C (stereo not drawn), the Potency is reported as inconclusive: 14.1 µM [inhibitor, single point].
With FC(F)(F)c1cccc(NC(=S)NCc2ccccn2)c1 the Potency was inconclusive: 1.26 µM [activator, single point].
With Cc1ccc(Oc2nc3c(c(=O)n(C)c(=O)n3C)n2C)cc1C the Potency was inconclusive: 15.8 µM [inhibitor, single point].
For COc1ccc(N2CCN(C(=O)c3ccccc3Br)CC2)c([N+](=O)[O-])c1, the Potency was inconclusive: 22.4 µM [inhibitor, single point].
With Cn1c(=O)c(Sc2ccccc2)c(O)c2ccccc21 the activity change, negative = inhibition was inactive: -14.3% [at 9.22 µM].
In the case of O=C(Cn1c(-c2ccccc2)c[n+]2ccsc12)c1ccc([N+](=O)[O-])cc1, the Potency is reported as inconclusive: 35.5 µM [inhibitor, single point].
In the case of Cc1cccc(NC(=O)N2CCC(c3nc4ccccc4o3)CC2)c1, the “activity change, negative = inhibition” value is reported as inactive: -5.07%.
With CCOc1cc(/C=N/NC(N)=O)cc(Br)c1OCc1ccccc1 the Potency was inconclusive: 5.62 µM [inhibitor, single point].
For O=C(Oc1ccc(N(C(=O)c2ccncc2)S(=O)(=O)c2ccc(Cl)cc2)cc1)c1ccncc1, the Potency was inconclusive: 15.8 µM [activator, single point].
In the case of O=C(c1cc2ccccc2oc1=O)N(c1ccc(Cl)cc1)C1C=CS(=O)(=O)C1 (stereo not drawn), the Potency is reported as inconclusive: 11.2 µM [activator, single point].
In the case of CN(C)S(=O)(=O)c1ccc(N2CCCC2)c(C(=O)Nc2nc3c(ccc4ccccc43)s2)c1, the Potency is reported as inconclusive: 1.26 µM [inhibitor, full curve].
With COc1ccc(/C=C/C(=O)NC(=S)NNC(=O)c2cccs2)cc1 the Potency was inconclusive: 11.2 µM [inhibitor, partial curve].
With O=C(Nc1cccc(Cl)c1)C1C2CCC3C(CCC21)C3(Cl)Cl (stereo not drawn) the Potency was inconclusive: 11.2 µM [inhibitor, partial curve].
For Cc1ncsc1C(=O)N1N=C2/C(=C/c3ccc(N4CCOCC4)cc3)CCCC2C1c1ccc(N2CCOCC2)cc1 (stereo not drawn), the Potency was inconclusive: 7.08 µM [activator, partial curve].
For Cc1ccc(SCCNC(=O)c2ccc(C)c(S(=O)(=O)Nc3cccc(C)c3)c2)cc1, the Potency was inconclusive: 35.5 µM [inhibitor, single point].
For CN1Cc2cc(C(=O)c3cc(Cl)cc(CSc4ncccn4)c3O)cnc2NC1=O, the Potency was inconclusive: 35.5 µM [activator, single point].
For O=C(CN1C(=O)C2C3C=CC(C3)C2C1=O)Nc1ccc(F)cc1 (stereo not drawn), the Potency was inconclusive: 0.501 µM [activator, full curve, poor fit].
With NC(=O)c1sc2nc3c(c(-c4ccccc4)c2c1N)CCC3 the Potency was active: 7.08 µM.
For CCCNC(=O)NS(=O)(=O)c1cnccc1Sc1ccc(Cl)c(Cl)c1, the Potency was inconclusive: 35.5 µM [inhibitor, single point].
For Cc1cc(OCCCCCn2ccnc2)cc(C)c1Cl, the Potency was inconclusive: 35.5 µM [inhibitor, single point].
In the case of O=S(=O)(NCc1cn2ccsc2n1)c1cccs1, the “activity change, negative = inhibition” value is reported as inactive: -0.219%.
For CC1(C)Cc2c(sc3c2c(N)nc(=S)n3Cc2ccc(Br)cc2)CO1, the activity change, negative = inhibition was inactive: 7.41% [at 9.22 µM].
In the case of CN(C(=O)COC(=O)c1ccc[nH]c1=O)C1CCCCC1, the “activity change, negative = inhibition” value is reported as inactive: -0.705%.
With COc1ccc(S(=O)(=O)NCC(c2cccnc2)N2CCN(c3ccccc3)CC2)cc1C (stereo not drawn) the activity change, negative = inhibition was inactive: 4.33% [at 9.22 µM].
With Cc1ccccc1C(=O)NCCNc1ccc([N+](=O)[O-])cc1 the Potency was inconclusive: 0.501 µM [activator, partial curve, poor fit].
With O=C(Nc1ccccc1F)Nc1ccccc1Br the Potency was inconclusive: 35.5 µM [inhibitor, single point].
On the % scale 0 is the no-effect control and ±100 the full control effect; potency means the concentration at half of the fitted maximal effect.
